In article PMC6683498, “The conserved actinobacterial transcriptional regulator FtsR controls expression of ftsZ and further target genes and influences growth and cell division in Corynebacterium glutamicum”:

Target: T1, FtsR-Strep (Corynebacterium glutamicum ATCC13032) (UniProt Q8NQJ2)
T1 sequence (looked up, limits assumed): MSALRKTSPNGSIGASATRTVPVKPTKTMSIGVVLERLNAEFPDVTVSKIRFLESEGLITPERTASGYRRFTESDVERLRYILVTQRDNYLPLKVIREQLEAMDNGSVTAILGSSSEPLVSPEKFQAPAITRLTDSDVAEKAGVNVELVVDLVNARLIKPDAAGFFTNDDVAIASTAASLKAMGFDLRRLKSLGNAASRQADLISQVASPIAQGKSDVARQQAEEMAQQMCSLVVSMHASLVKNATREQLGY
Assay: EMSA
Conditions: 1 uM DNA, incomplete shift even at 8.5-fold molar excess of dimer; EMSA: 10 mM Tris-HCl pH 7.5, 30 mM NaCl, 1.5 mM Na2EDTA, room temperature, 30 min; 15% native PAGE in 1x TBE (competition EMSA: 10% gel); recombinant protein; protein details: C-terminal AS linker + Strep-tag II (WSHPQFEK)

GAAGCCACATGACATATGTCATGAAAATTA (double strand) [cg1081 promoter 30-bp control oligo]
binding result: binds more weakly

For at least one entry, the source does not settle the construct or the ends of the probe. The comparison behind a weaker result is the experiment's own reference, which may not be listed here. Tags and fusion partners may be left off the protein sequences shown.
